Data as given in PubChem BioAssay AID1259425 (University of Nebraska Medical Center, 2018).

Purpose: 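Find knockdowns that reproduce the gene expression pattern seen when KSR1 is lost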 (primary screen)
System: HCT116 human colon cancer cells
Reagents: siRNA pool against human genes, 50 nM siRNA
Measurement: 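mRNA of six signature genes measured together by branched-DNA assay after 50 nM siRNA pool, blank removed, divided by geometric mean of two housekeeping genes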
Reading the numbers: BNIP3L mRNA: higher = more BNIP3L transcript after knockdown; NDRG1 mRNA: higher = more NDRG1 transcript after knockdown; BNIP3 mRNA: higher = more BNIP3 transcript after knockdown; ALDOC mRNA: higher = more ALDOC transcript after knockdown; ACSL5 mRNA: higher = more ACSL5 transcript after knockdown
This is a random part of about 14,000 deposited reagents. Not given: the time to read-out.

no.	gene symbol	BNIP3L mRNA, set 1	NDRG1 mRNA, set 1	BNIP3 mRNA, set 1	ALDOC mRNA, set 1	ACSL5 mRNA, set 1
1	PHLDA1 (pleckstrin homology like domain family A member 1)	0.0926	0.323	0.235	0.0217	0.219
2	LHX1 (LIM homeobox 1)	0.123	0.0655	0.324	0.0211	0.0587
3	EIF2B4 (eukaryotic translation initiation factor 2B subunit delta)	0.125	0.404	0.162	-0.013	0.296
4	PUS1 (pseudouridine synthase 1)	0.116	0.276	0.336	0.0445	0.161
5	AQP1 (aquaporin 1 (Colton blood group))	0.0586	0.317	0.183	0.0137	0.11
6	DSCC1	1.34	3.86	4.06	0.367	0.475
7	E2F6 (E2F transcription factor 6)	0.139	0.0846	0.427	0.0179	0.107
8	YTHDF1 (YTH N6-methyladenosine RNA binding protein F1)	0.0863	0.101	0.217	0.0182	0.0521
9	MORC4 (MORC family CW-type zinc finger 4)	0.154	0.229	0.248	0.0552	0.107
10	NDUFA7 (NADH:ubiquinone oxidoreductase subunit A7)	0.128	0.952	0.353	0.0198	0.186
11	CSAD (cysteine sulfinic acid decarboxylase)	0.15	0.235	0.227	0.0547	0.182
12	CDK1 (cyclin dependent kinase 1)	0.108	1.42	0.368	0.00481	0.367
13	ZRANB1 (zinc finger RANBP2-type containing 1)	0.0601	0.263	0.229	0.0206	0.135
14	HGD (homogentisate 1,2-dioxygenase)	0.0617	0.219	0.25	0.0123	0.171
15	PPP4C (protein phosphatase 4 catalytic subunit)	0.0433	0.217	0.314	0.00795	0.296
16	SINHCAF (SIN3-HDAC complex associated factor)	0.0888	0.188	0.33	0.0221	0.181
17	NRBP1 (nuclear receptor binding protein 1)	0.0976	0.0937	0.313	0.00778	0.232
18	RBM39 (RNA binding motif protein 39)	0.0762	0.455	0.449	0.00247	0.12
19	DCUN1D1 (defective in cullin neddylation 1 domain containing 1)	0.0762	0.168	0.242	0.00736	0.112

Laid out differently: entries from further up
{"gene symbol":"AQP1 (aquaporin 1 (Colton blood group))","BNIP3L mRNA, set 1":0.0586,"NDRG1 mRNA, set 1":0.317,"BNIP3 mRNA, set 1":0.183,"ALDOC mRNA, set 1":0.0137,"ACSL5 mRNA, set 1":0.11}
{"gene symbol":"DSCC1","BNIP3L mRNA, set 1":1.34,"NDRG1 mRNA, set 1":3.86,"BNIP3 mRNA, set 1":4.06,"ALDOC mRNA, set 1":0.367,"ACSL5 mRNA, set 1":0.475}
{"gene symbol":"E2F6 (E2F transcription factor 6)","BNIP3L mRNA, set 1":0.139,"NDRG1 mRNA, set 1":0.0846,"BNIP3 mRNA, set 1":0.427,"ALDOC mRNA, set 1":0.0179,"ACSL5 mRNA, set 1":0.107}
{"gene symbol":"YTHDF1 (YTH N6-methyladenosine RNA binding protein F1)","BNIP3L mRNA, set 1":0.0863,"NDRG1 mRNA, set 1":0.101,"BNIP3 mRNA, set 1":0.217,"ALDOC mRNA, set 1":0.0182,"ACSL5 mRNA, set 1":0.0521}
{"gene symbol":"MORC4 (MORC family CW-type zinc finger 4)","BNIP3L mRNA, set 1":0.154,"NDRG1 mRNA, set 1":0.229,"BNIP3 mRNA, set 1":0.248,"ALDOC mRNA, set 1":0.0552,"ACSL5 mRNA, set 1":0.107}
{"gene symbol":"NDUFA7 (NADH:ubiquinone oxidoreductase subunit A7)","BNIP3L mRNA, set 1":0.128,"NDRG1 mRNA, set 1":0.952,"BNIP3 mRNA, set 1":0.353,"ALDOC mRNA, set 1":0.0198,"ACSL5 mRNA, set 1":0.186}
{"gene symbol":"CSAD (cysteine sulfinic acid decarboxylase)","BNIP3L mRNA, set 1":0.15,"NDRG1 mRNA, set 1":0.235,"BNIP3 mRNA, set 1":0.227,"ALDOC mRNA, set 1":0.0547,"ACSL5 mRNA, set 1":0.182}
{"gene symbol":"CDK1 (cyclin dependent kinase 1)","BNIP3L mRNA, set 1":0.108,"NDRG1 mRNA, set 1":1.42,"BNIP3 mRNA, set 1":0.368,"ALDOC mRNA, set 1":0.00481,"ACSL5 mRNA, set 1":0.367}

Next entries follow:
no.	gene symbol	BNIP3L mRNA, set 1	NDRG1 mRNA, set 1	BNIP3 mRNA, set 1	ALDOC mRNA, set 1	ACSL5 mRNA, set 1
20	PPY (pancreatic polypeptide)	0.0549	0.0628	0.26	0.0175	0.0945
21	HRAS (HRas proto-oncogene, GTPase)	0.0788	0.145	0.347	0.021	0.118
22	POLA2 (DNA polymerase alpha 2, accessory subunit)	0.112	0.604	0.372	0.0524	0.382
23	ABCE1 (ATP binding cassette subfamily E member 1)	0.102	0.391	0.439	0.0117	0.231
24	IGF1 (insulin like growth factor 1)	0.107	0.215	0.242	0.0267	0.127
25	ZFR (zinc finger RNA binding protein)	0.116	0.138	0.266	0.0247	0.103
26	SMG1	0.0872	0.221	0.33	0.0148	0.279
27	HSPA1A (heat shock protein family A (Hsp70) member 1A)	0.0907	0.153	0.425	0.0167	0.137
28	PSCA (prostate stem cell antigen)	0.207	0.316	0.4	0.021	0.401
29	NFKB1 (nuclear factor kappa B subunit 1)	0.117	0.0105	0.318	-0.0068	0.0688
30	DKFZp566H0824 (retired record)	0.0953	0.227	0.377	0.0469	0.127
31	RASA1 (RAS p21 protein activator 1)	0.0934	0.126	0.26	0.0224	0.16
32	BRSK1 (BR serine/threonine kinase 1)	0.179	0.222	0.282	0.0131	0.272
33	EXOC6 (exocyst complex component 6)	0.137	0.213	0.283	0.0537	0.2
34	BTC (betacellulin)	0.166	0.456	0.28	0.0265	0.164
35	CSH2 (chorionic somatomammotropin hormone 2)	0.2	0.286	0.247	0.0571	0.163
36	ROCK2 (Rho associated coiled-coil containing protein kinase 2)	0.0417	0.127	0.22	0.00133	0.257
37	SCN8A (sodium voltage-gated channel alpha subunit 8)	0.144	0.166	0.399	0.0338	0.125
38	ALDH4A1 (aldehyde dehydrogenase 4 family member A1)	0.0497	0.143	0.195	0.00487	0.14
39	ABHD12 (abhydrolase domain containing 12, lysophospholipase)	0.127	0.159	0.481	0.0382	0.319
40	KCNA5 (potassium voltage-gated channel subfamily A member 5)	0.0358	0.162	0.207	0.0164	0.16
41	LINC01949 (long independently transcribed non-coding RNA 1949)	0.0695	0.448	0.197	0.0172	0.521
42	DPYD (dihydropyrimidine dehydrogenase)	0.0849	0.13	0.326	0.0313	0.135
43	SETBP1 (SET binding protein 1)	0.0929	0.323	0.642	0.0464	0.308
44	MIOX (myo-inositol oxygenase)	0.0777	0.132	0.343	0.016	0.0512
45	SNAPC2 (small nuclear RNA activating complex polypeptide 2)	0.112	0.396	0.245	0.0118	0.319
46	OGG1 (8-oxoguanine DNA glycosylase)	0.183	0.0692	0.175	0.0789	0.0639
47	SCRG1 (stimulator of chondrogenesis 1)	0.116	0.404	0.314	0.0488	0.204
48	G2E3 (G2/M-phase specific E3 ubiquitin protein ligase)	0.914	2.43	3.6	0.417	0.0705
49	RASAL1 (RAS protein activator like 1)	0.127	0.0859	0.272	0.00838	0.0611
50	PCDHB9 (protocadherin beta 9)	0.0901	0.185	0.297	0.0465	0.209
